These are yes or no findings as the source states them, for the method shown. In cells and extracts the contact can be indirect. Some entries that bind do so weakly or less than the wild type. Each block holds one substance with its values, some of them ahead of it.
Columns and labels:
[1] = molecular target: Tet1 (human (endogenous in A549)) (UniProt Q8NFU7); experiment: co-IP; A549 cell lysate, endogenous proteins, cells with or without TGF-β; co-IP kit (Thermo Fisher) with 10 ug immobilised affinity-purified antibody, overnight at 4 °C, eluate by western blotting
[2] = molecular target: thymine DNA glycosylase (TDG) (human (endogenous in NCI-H460 and A549)) (UniProt Q13569); experiment: as above
[3] = molecular target: thymine DNA glycosylase (TDG) (human (endogenous in NCI-H460 and A549)) (UniProt Q13569); experiment: co-IP; NCI-H460 cell lysate, endogenous proteins; co-IP kit (Thermo Fisher) with 10 ug immobilised affinity-purified antibody, overnight at 4 °C, eluate by western blotting
[4] = molecular target: methyl-CpG-binding protein 2 (MeCP2) (human (endogenous in A549)) (UniProt P51608); experiment: co-IP; A549 cell lysate, endogenous proteins, cells with or without TGF-β; co-IP kit (Thermo Fisher) with 10 ug immobilised affinity-purified antibody, overnight at 4 °C, eluate by western blotting

The chains behind the UniProt entries cited, without tags or fusion partners. Where a name states a change or a piece, a line headed by the entry shows the natural chain unless it says otherwise.
UniProt Q8NFU7: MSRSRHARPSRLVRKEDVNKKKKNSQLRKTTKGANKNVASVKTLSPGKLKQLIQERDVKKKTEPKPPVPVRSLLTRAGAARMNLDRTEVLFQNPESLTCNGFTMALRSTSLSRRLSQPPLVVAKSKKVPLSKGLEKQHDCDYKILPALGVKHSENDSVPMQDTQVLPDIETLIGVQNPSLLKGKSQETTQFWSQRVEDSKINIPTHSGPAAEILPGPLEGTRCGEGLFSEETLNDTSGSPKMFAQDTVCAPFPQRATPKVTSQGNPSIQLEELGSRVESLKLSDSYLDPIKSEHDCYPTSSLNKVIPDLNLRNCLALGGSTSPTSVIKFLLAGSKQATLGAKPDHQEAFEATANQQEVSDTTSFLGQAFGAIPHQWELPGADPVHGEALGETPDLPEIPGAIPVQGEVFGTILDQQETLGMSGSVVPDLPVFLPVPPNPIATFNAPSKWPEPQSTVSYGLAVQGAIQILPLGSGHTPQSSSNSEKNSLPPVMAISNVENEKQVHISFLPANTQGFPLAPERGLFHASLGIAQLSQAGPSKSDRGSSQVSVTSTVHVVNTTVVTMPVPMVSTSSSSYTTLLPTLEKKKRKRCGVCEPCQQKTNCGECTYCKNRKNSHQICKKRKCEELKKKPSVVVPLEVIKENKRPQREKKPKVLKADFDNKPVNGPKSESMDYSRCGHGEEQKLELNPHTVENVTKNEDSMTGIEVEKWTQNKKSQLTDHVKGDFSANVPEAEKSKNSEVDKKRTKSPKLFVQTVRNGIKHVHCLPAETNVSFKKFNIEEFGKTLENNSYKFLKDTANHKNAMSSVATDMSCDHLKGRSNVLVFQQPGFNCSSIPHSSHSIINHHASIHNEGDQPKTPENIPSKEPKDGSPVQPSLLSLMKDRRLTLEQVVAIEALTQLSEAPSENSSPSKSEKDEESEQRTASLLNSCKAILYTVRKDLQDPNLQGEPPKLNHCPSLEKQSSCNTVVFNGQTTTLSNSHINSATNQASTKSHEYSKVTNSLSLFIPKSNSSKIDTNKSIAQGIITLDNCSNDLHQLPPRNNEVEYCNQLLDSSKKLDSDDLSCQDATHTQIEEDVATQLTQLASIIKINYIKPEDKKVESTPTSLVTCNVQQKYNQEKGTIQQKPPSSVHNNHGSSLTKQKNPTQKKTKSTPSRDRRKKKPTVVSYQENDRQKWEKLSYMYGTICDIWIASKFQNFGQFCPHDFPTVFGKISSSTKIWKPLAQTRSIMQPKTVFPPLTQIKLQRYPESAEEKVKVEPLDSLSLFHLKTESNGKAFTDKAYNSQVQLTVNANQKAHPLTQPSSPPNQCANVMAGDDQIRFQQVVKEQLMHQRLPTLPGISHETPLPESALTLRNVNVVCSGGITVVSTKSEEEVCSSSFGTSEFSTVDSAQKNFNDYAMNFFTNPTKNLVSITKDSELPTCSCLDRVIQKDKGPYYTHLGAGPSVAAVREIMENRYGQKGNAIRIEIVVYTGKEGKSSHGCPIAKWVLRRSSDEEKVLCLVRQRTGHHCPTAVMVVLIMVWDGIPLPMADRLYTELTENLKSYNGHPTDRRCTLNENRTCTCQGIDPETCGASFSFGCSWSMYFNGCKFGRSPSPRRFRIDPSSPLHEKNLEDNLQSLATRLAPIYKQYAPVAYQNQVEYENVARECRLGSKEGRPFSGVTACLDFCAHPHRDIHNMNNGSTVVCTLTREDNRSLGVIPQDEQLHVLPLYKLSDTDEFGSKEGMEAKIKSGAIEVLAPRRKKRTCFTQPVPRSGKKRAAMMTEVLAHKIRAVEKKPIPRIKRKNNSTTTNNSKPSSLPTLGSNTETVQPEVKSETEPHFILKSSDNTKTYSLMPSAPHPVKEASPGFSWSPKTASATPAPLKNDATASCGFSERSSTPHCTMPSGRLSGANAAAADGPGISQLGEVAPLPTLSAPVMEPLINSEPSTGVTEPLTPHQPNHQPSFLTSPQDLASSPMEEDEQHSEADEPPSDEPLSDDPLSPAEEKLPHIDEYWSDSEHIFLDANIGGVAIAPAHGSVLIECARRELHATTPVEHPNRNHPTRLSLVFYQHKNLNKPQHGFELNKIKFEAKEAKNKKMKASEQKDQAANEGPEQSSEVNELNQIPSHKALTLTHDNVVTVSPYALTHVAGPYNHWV
UniProt Q13569: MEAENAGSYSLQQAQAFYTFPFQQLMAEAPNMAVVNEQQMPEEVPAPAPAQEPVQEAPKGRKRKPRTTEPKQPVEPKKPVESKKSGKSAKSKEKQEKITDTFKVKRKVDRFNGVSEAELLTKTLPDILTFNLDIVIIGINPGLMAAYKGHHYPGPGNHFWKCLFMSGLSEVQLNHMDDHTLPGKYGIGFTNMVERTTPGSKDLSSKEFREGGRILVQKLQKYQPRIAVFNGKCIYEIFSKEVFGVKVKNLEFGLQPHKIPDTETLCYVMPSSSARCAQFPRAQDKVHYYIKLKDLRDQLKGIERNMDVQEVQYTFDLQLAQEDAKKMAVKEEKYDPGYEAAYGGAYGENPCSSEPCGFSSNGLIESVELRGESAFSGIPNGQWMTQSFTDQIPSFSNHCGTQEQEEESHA
UniProt P51608: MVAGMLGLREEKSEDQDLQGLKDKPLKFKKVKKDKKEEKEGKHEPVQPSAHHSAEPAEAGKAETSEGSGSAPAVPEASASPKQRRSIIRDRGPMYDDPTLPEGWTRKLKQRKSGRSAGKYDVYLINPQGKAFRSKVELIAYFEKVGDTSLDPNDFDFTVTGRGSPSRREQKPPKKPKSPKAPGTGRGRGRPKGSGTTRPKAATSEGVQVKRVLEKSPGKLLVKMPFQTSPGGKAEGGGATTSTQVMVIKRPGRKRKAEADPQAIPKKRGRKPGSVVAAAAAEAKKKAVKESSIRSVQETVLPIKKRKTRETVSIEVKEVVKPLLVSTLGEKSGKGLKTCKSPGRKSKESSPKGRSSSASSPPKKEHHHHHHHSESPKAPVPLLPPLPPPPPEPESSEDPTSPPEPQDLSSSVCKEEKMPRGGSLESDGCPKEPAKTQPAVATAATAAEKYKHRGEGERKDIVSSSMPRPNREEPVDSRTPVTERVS
UniProt P08047: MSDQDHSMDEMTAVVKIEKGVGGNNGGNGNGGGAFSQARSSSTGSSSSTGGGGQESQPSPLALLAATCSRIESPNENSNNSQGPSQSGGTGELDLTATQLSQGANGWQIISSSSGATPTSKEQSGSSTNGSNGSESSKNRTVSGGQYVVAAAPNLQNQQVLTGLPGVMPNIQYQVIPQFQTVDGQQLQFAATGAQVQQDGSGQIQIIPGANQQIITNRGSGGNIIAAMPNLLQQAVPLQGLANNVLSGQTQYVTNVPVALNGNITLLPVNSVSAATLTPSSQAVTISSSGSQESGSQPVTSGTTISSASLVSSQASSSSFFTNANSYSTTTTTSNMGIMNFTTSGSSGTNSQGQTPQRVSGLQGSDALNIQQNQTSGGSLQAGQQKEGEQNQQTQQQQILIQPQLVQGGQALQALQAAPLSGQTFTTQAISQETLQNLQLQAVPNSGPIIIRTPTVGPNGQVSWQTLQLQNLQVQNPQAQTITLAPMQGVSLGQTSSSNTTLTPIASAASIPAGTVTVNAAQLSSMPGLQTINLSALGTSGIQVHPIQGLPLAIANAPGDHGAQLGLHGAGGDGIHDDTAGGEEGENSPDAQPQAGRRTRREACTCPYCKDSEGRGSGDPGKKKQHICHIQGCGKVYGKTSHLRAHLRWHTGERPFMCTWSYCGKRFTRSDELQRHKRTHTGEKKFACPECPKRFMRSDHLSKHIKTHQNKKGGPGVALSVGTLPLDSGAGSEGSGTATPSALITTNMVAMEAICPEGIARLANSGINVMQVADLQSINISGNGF
UniProt Q15796: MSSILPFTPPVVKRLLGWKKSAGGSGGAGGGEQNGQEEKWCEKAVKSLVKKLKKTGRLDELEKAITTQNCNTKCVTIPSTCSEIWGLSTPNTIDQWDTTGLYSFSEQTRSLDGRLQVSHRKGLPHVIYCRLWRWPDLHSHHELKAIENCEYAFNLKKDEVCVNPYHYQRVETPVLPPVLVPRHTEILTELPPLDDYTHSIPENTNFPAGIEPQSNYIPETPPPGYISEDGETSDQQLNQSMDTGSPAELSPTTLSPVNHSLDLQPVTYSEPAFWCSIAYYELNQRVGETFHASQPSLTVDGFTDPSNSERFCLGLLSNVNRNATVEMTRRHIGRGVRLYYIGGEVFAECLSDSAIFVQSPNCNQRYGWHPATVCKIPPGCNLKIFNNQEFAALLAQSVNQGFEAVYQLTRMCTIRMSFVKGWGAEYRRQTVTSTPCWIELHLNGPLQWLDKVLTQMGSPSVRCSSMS
UniProt Q99612: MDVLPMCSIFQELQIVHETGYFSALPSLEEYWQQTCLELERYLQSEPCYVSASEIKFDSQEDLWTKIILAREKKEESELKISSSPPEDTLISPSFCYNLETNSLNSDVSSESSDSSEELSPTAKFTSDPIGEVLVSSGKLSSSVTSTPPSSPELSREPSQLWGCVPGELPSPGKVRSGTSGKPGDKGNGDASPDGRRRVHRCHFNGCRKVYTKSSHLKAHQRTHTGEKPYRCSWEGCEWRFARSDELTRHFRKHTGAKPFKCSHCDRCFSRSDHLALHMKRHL

- binding [1]: binds
- binding [2]: binds
Substance: Sp1 (from UniProt P08047 1-785)

- binding [3]: binds
Substance: SMAD2/3 (from UniProt Q15796 1-467; P84022 1-425) (complex)

- binding [4]: binds
Substance: Krueppel-like factor 6 (KLF6) (from UniProt Q99612 1-283)
